# Reference: PubChem BioAssay AID1347076 (National Center for Advancing Translational Sciences (NCATS), 2019)
# Screen size: about 400,000 compounds; about 13,000 (3.2%) were called active. Inconclusive means that the source gave no clear call. Such entries were picked first, then a sample of the others. The call rests on the fitted dose curve; in most records, active means well fitted cell-killing curve with a large enough effect; inconclusive means small, poorly fitted or top-dose-only effect, or effect the other way; inactive means flat fitted curve, though single readings scatter. Where the call is inconclusive, the potency comes from a doubtful curve fit.
# Experiment: qHTS assay for MDR1-selective chemotherapeutics: Primary screen using the drug-selected MDR subline cells KB-V1; further: nearly all actives have a fitted effect of over 60% in size
# Conditions: KB-V1 MDR cells viability, CellTiter-Glo, 72 h; activity change, negative = cytotoxicity: at 46.1 µM (top of the series)
# Method in brief: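 Cells of the MDR subline KB-V1 are plated, dosed with compound at multiple concentrations, and incubated 72 h at 37 degrees C; CellTiter-Glo is then added and luminescence read after 10 min.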
# On the % scale 0 is the no-effect control and ±100 the full control effect; potency means the concentration at half of the fitted maximal effect.
Structure (SMILES),Potency,"activity change, negative = cytotoxicity"
N#Cc1c(-c2cccs2)cc(-c2ccccn2)nc1N,"inconclusive: 16.4 µM [cytotoxic, partial curve]",–
O=C(c1ccco1)N(CCC(c1ccccc1)c1ccco1)Cc1ccc(F)cc1 (stereo not drawn),active: 7.31 µM,–
O=C(Nc1ccccc1)Nc1cc(Cl)cc(Cl)c1,"inconclusive: 20.6 µM [cytotoxic, single point]",–
O=C(O)COc1ccccc1/C=N/NC(=O)Cc1csc(Nc2cccc(C(F)(F)F)c2)n1,"inconclusive: 8.2 µM [rising, partial curve]",–
CCCCCCC=C1CCC(CN2CCCC2)C1=O (stereo not drawn),"inconclusive: 20.6 µM [cytotoxic, single point]",–
COc1ccc(-n2nnc3c(=O)n(CC(=O)N4CCCc5ccccc54)cnc32)cc1,inactive,–
Cc1ccc2c(c1)nnn2C1CCN(S(=O)(=O)c2cccc(S(=O)(=O)N(C)C)c2)CC1,inactive,–
Cc1cccc2c1N(CCOc1ccccc1Cl)C(=O)C2=O,inactive,–
O=C(/C=C/c1ccco1)c1ccc(NC(=O)C23CC4CC(CC(C4)C2)C3)cc1,"inconclusive: 13 µM [cytotoxic, partial curve, poor fit]",–
CCc1c(C(=O)NCc2ccc3c(c2)OCO3)[nH]c(C)c1C(C)=O,"inconclusive: 10 µM [cytotoxic, partial curve]",–
CCOC(=O)c1sc(NC(=O)CSc2n[nH]c(-c3ccccc3)n2)c(C#N)c1C,"inconclusive: 29.1 µM [cytotoxic, single point]",–
Cc1ccc(C(=O)NCC(c2ccco2)N2CCc3ccccc3C2)cc1C (stereo not drawn),"inconclusive: 6.51 µM [cytotoxic, partial curve]",–
CCOC(=O)c1c(C)oc2ccc(N(C(=O)c3ccncc3)S(=O)(=O)c3ccc(Br)cc3)cc12,"inconclusive: 16.4 µM [cytotoxic, single point]",–
O=C(CCl)Nc1cccc(S(=O)(=O)NC2=NCCC2)c1,inactive,–
N#CC1=C(N)NC(=S)C(C(N)=O)C1c1ccc(Cl)cc1Cl (stereo not drawn),"inconclusive: 29.1 µM [rising, single point]",–
CN(Cc1ccccc1)Cc1nc2c(c(=O)n(C)c(=O)n2C)n1CCCc1ccccc1,active: 16.4 µM,–
CC(NC(=O)Nc1ccc(Cl)c(Cl)c1)C(c1ccccc1)N1CCOCC1 (stereo not drawn),"inconclusive: 13 µM [cytotoxic, single point]",–
Cc1ccc(S(=O)(=O)N2CCC(=O)N(C(COCc3cccc(C(F)(F)F)c3)C(C)C)CC2)cc1 (stereo not drawn),"inconclusive: 23.1 µM [cytotoxic, single point]",–
CCOC(=O)c1cc(-c2ccccc2)nc2ccc(C)cc12,"inconclusive: 20.6 µM [cytotoxic, single point]",–
COc1ccc(NC(=O)C2=NN(C3CCS(=O)(=O)C3)C(=O)CC2)cc1S(N)(=O)=O (stereo not drawn),"inconclusive: 6.51 µM [rising, full curve, poor fit]",–
COc1cccc(NC(=O)CN(C)C(=O)c2c(-c3ccccc3)noc2C)c1,"inconclusive: 10.3 µM [cytotoxic, partial curve, poor fit]",–
O=C(Nc1ccc(N2CCOCC2)cc1)c1cccc(S(=O)(=O)N2CCCC2)c1,"inconclusive: 20.6 µM [cytotoxic, single point]",–
O=c1[nH][nH]c(-c2ccccc2O)c1C(C[N+](=O)[O-])c1ccc(Br)cc1 (stereo not drawn),inactive,–

Structure (SMILES),Potency,"activity change, negative = cytotoxicity"
CN1c2ccccc2C(C)(C)C12CC(c1ccc(S(=O)(=O)N3CCCCC3)cc1)=NO2 (stereo not drawn),"inconclusive: 5.17 µM [cytotoxic, partial curve, poor fit]",–
Cc1nn(Cc2ccc(Cl)cc2)c(C)c1NC(=O)c1noc2c1CCCCC2,"inconclusive: 7.31 µM [cytotoxic, partial curve]",–
CCCNC(=O)C1CC2Cn3c(nc4ccccc43)C2N1C (stereo not drawn),"inconclusive: 6.51 µM [rising, partial curve]",–
Cc1ccc(Cl)cc1N1CCN(C(=O)c2cc3c(=O)[nH]c4ccccc4c3n2C)CC1,active: 7.31 µM,–
O=C(CSc1nncs1)NCc1ccc(F)cc1,inactive,–
Cn1c(=O)c2c(nc(NCC3CCCC(CN)C3)n2Cc2ccc(Cl)cc2Cl)n(C)c1=O (stereo not drawn),"inconclusive: 25.9 µM [cytotoxic, single point]",–
CNC(=O)C1CCC(Cn2c(=O)c3sccc3n(CC(=O)Nc3ccc(C)c(F)c3)c2=O)CC1 (stereo not drawn),"inconclusive: 0.92 µM [rising, full curve, poor fit]",–
Cc1cccc(NS(=O)(=O)c2ccc(C(=O)N3CCCC3)cc2)c1C,–,inconclusive: -38.1% [cytotoxic]
COc1ccc(OC)c(N(CC(=O)Nc2ccccc2)S(C)(=O)=O)c1,"inconclusive: 18.4 µM [cytotoxic, single point]",–
CCN(CC)S(=O)(=O)c1ccc(C)c(NC(=O)CSc2nc3ccccc3[nH]2)c1,"inconclusive: 20.6 µM [cytotoxic, single point]",–
CCOc1cc2[nH]c(=O)n(CCCC(=O)N3CCN(c4ccc(OC)cc4)CC3)c(=O)c2cc1OCC,inactive,–
COc1ccc(NS(=O)(=O)c2cc(N)ccc2N2CCCC2)cc1,"inconclusive: 29.1 µM [cytotoxic, partial curve, poor fit]",–
COc1ccc(-c2cn(-c3ccc(C)c(C)c3)c(=S)[nH]2)cc1OC,inactive,–
CCOC(=O)c1c(C)[nH]c(C(=O)OCC(=O)N2CCN(S(=O)(=O)c3ccc(C)cc3C)CC2)c1C,"inconclusive: 29.1 µM [cytotoxic, single point]",–
Cc1cc(C(=O)NCc2cccs2)ccc1[N+](=O)[O-],"inconclusive: 29.1 µM [cytotoxic, single point]",–
O=C(C1CCCN(S(=O)(=O)c2cccc3cccnc23)C1)N1CCN(c2ccccc2F)CC1 (stereo not drawn),inactive,–
C#CCOc1ccc(Br)cc1C(c1c(C)[nH][nH]c1=O)c1c(C)[nH][nH]c1=O,"inconclusive: 29.1 µM [rising, partial curve, poor fit]",–
CC(=O)c1ccccc1NCC(=O)Nc1ccc(C)cc1,"inconclusive: 16.4 µM [cytotoxic, partial curve, poor fit]",–
C#Cc1cccc(C(=O)N2CCCC(C(=O)c3ccc(OC)cc3C)C2)c1 (stereo not drawn),"inconclusive: 23.1 µM [cytotoxic, single point]",–
C[C@H](CO)N1C[C@H](C)[C@@H](CN(C)S(=O)(=O)c2ccccc2)Oc2c(NC(=O)Nc3ccc4c(c3)OCO4)cccc2C1=O,inactive,–
CC(=O)c1c(C)[nH]c(C(=O)CSc2nnc(N)s2)c1C,inactive,–
CCc1nc2ccc(C(=O)Nc3ccc(C(N)=O)cc3)cn2c1N(C)CCC(C)C,inactive,–
CCCc1nc2ccccc2c(=O)n1-c1ccc(C(=O)OCC)cc1,"inconclusive: 13 µM [cytotoxic, partial curve]",–

Structure (SMILES),Potency,"activity change, negative = cytotoxicity"
CCOc1ccc(OCC)c(NC(=O)CCC(=O)N2CCOc3ccccc32)c1,"inconclusive: 7.31 µM [cytotoxic, partial curve, poor fit]",–
CN(CC(=O)Nc1ccc(Cl)c(Cl)c1)CC(=O)N1CCc2ccccc21,inactive,–
C/C(=N\OCc1ccc(C#N)cc1)c1ccc(S(=O)(=O)N(C)C)cc1,"inconclusive: 29.1 µM [cytotoxic, single point]",–
Cc1ccccc1OCCOc1ccc([N+](=O)[O-])cc1/C=N/n1cnnc1,active: 8.2 µM,–
CCCOc1c(Br)cc(C(=O)OCc2cc(=O)n3ccsc3n2)cc1OC,inactive,–
COc1ccc(CNC(=S)Nc2ccccc2)cc1,inactive,–
COc1ccc2nc(NC(=O)CSc3nc(C)cc(=O)[nH]3)sc2c1,inactive,–
CC(Oc1ccccc1)C(=O)Nc1ccc(S(=O)(=O)N2CCOCC2)cc1 (stereo not drawn),"inconclusive: 25.9 µM [cytotoxic, single point]",–
COc1ccc(Cl)cc1NC(=O)c1cccc(-n2cnnn2)c1,inactive,–
CCOC(=O)CSc1nc(C)cc(C)c1C(N)=O,"inconclusive: 29.1 µM [rising, single point]",–
O=c1ccc(-c2ccc(S(=O)(=O)Nc3cccc(Br)c3)o2)n[nH]1,"inconclusive: 29.1 µM [rising, single point]",–
O=C1OCCC1=COCCCCCCOC=C1CCOC1=O,"inconclusive: 29.1 µM [cytotoxic, single point]",–
COc1ccc2nc(N/C(=N/S(=O)(=O)c3cccs3)c3ccccc3Cl)sc2c1,"inconclusive: 29.1 µM [rising, single point]",–
CCN(CC)CCNC(=O)c1nn(C)c2c1CS(=O)(=O)c1ccccc1-2,inactive,–
CCOC(=O)c1ccc(N2C(=O)c3n[nH]c(-c4ccco4)c3C2c2ccc(O)c(OC)c2)cc1 (stereo not drawn),"inconclusive: 29.1 µM [rising, single point]",–
CC1(C(=O)Nc2ccc3c(c2)OCCO3)CSCC(=O)N1Cc1ccco1 (stereo not drawn),inactive,–
CC(C)OC(=O)NCCOC(=O)Nc1cccc(Cl)c1,inactive,–
C[C@]12c3[nH]c4ccccc4c3CCN1C(=O)C(CC(=O)NCCC1=CCCCC1)C[C@@H]2C(=O)N1CCCCC1 (stereo partly drawn),inactive,–
O=C(Nc1ccc(Cl)c([N+](=O)[O-])c1)c1ccc2c(c1)OCCO2,active: 13 µM,–
O=C(Cn1c(C(F)(F)F)nc2ccccc21)c1ccc(Br)cc1,"inconclusive: 23.1 µM [cytotoxic, single point]",–
CNC(=O)COc1ccc(NC(=O)CCn2nc(-c3ccc(C)cc3)c3ccccc3c2=O)cc1,"inconclusive: 25.9 µM [cytotoxic, single point]",–
C=CCN1C(=O)/C(=C/c2ccsc2)SC1=S,"inconclusive: 2.06 µM [rising, partial curve, poor fit]",–

# 3 neighbouring compounds out of the list so far:
Structure (SMILES),Potency,"activity change, negative = cytotoxicity"
Cn1c(=O)c2c(nc(NCC3CCCC(CN)C3)n2Cc2ccc(Cl)cc2Cl)n(C)c1=O (stereo not drawn),"inconclusive: 25.9 µM [cytotoxic, single point]",–
CNC(=O)C1CCC(Cn2c(=O)c3sccc3n(CC(=O)Nc3ccc(C)c(F)c3)c2=O)CC1 (stereo not drawn),"inconclusive: 0.92 µM [rising, full curve, poor fit]",–
Cc1cccc(NS(=O)(=O)c2ccc(C(=O)N3CCCC3)cc2)c1C,–,inconclusive: -38.1% [cytotoxic]
